Assay results: PubChem BioAssay AID1845227 (National Center for Advancing Translational Sciences (NCATS), 2023)
The inconclusive results got no clear call from the source; some entries with a clear call stand among them for comparison. Potencies of inconclusive entries are doubtful fits and often do not repeat. The source made the active and inactive calls. The call rests on the fitted dose curve; in most records, active means well fitted inhibition curve with a large enough effect; inconclusive means small, poorly fitted or top-dose-only effect; inactive means no such curve, though single readings can be large or run the other way.

Each compound was assayed against Luciferin 4-monooxygenase (Photinus pyralis) (UniProt P08659) (assay: Confirmatory firefly luciferase (FLuc) qHTS assay for identification of artifact compounds). Settings: purified FLuc enzyme, luminescence, 5 min; series mostly up to 38.9 µM.
From the text: PI: Alexander Tropsha Ph.D. UNC Eshelman School of Pharmacy University of North Carolina, Chapel Hill, North Carolina Hits from high-throughput screening (HTS) of chemical libraries are often false positives due to their interference with the assay detection technology. In response to this problem, we generated the largest publicly available library of chemical liabilities and developed a free webtool to predict HTS artifacts, both of which are described herein. More specifically, we generated, curated, and integrated HTS datasets for thiol reactivity, redox activity, and luciferase (firefly and nano) activity. Using these curated datasets, we developed and validated several Quantitative Structure-Interference Relationship (QSIR) models to predict nuisance behavior. […] These models were employed for virtual profiling of the National Center for Advancing Translational Science's (NCATS) in-house library, and 256 compounds for each assay were selected for the experimental validation of nuisance behavior. The BA for these external predictions ranged from 58 to 78% for compounds within the applicability domains of the models. […] The models developed in this study, along with aggregation models previously developed by our group (SCAM Detective) were implemented in "Liability Predictor," an online tool which may be used as part of chemical library design or for triaging HTS hits. Both the models and the curated datasets are publicly available at https://liability.mml.unc.edu/.
PROTOCOL TABLE SEQUENCE No. (e.g., 1, 2, 3, etc.); […] (e.g., Cells, Incubation, Reagent, etc.); VALUE; DESCRIPTION. 1; Reagent; 3 uL; Luciferase substrate mixture. 2; Compounds and control; 16 nL; Kalypsis pin tool (Wako USA) equipped with a 1536-well pin head. 3; Incubation; 15 min. 4; Reagent; 1 uL; Luciferase enzyme. 5; Incubation; 5 min. 6; Detection; Luminescence, ViewLux microplate reader. NOTES (numbers refer to Sequence numbers above) 1. 3 uL of luciferase substrate mixture containing D-luciferin and ATP (final concentrations of 10 uM and 10 uM, respectively) in assay buffer (10 mM Mg-acetate, 0.01% Tween-20, 0.05% bovine serum albumin, 50 mM Tris acetate, pH 7.6) was dispensed into all wells of a 1536-well assay plate (solid-bottom white plate; Greiner Bio One, Monroe, NC). 2. A Wako Pin-tool (Wako Automation, Richmond, VA) was used to transfer 16 nL of compounds (consisting of 7-plates in qHTS format, final concentration range 18.3 nM to 114 uM) or control PTC124 (final concentration range 1.22 nM to 40 uM). 3. 15 min. incubation at room temperature protected from light. 4. 1 uL of luciferase enzyme (final concentration 10 nM, Photinus pyralis luciferase) or buffer was dispensed for a final assay volume of 4 uL. 5. Plates were centrifuged (121xg, 15 seconds) and incubated for 5 minutes. 6. Samples were read for luminescence on a ViewLux CCD imager (PerkinElmer). Data were normalized to no-enzyme (0% activity) and no-inhibitor (DMSO; 100%) controls and the resulting percent inhibition data were fitted to a 4-parameter Hill equation using NCATS in-house software.
Potency means the concentration at half of the fitted maximal effect.

SMILES | Potency
CCOc1ccc2c(c1)c(=O)c(S(=O)(=O)c1ccc(CC)cc1)cn2CC | inconclusive: 30.7 µM [inhibitor, single point]
Cc1noc(-c2ccc(-c3noc(-c4cccc(Cl)c4)n3)cc2)n1 | inconclusive: 13.7 µM [inhibitor, partial curve, poor fit]
COc1ccc(C(=O)Nc2noc3ccccc23)cc1 | active: 0.864 µM
Cc1ccccc1CSc1nc2cccnc2n1Cc1ccc(C(=O)NCCc2cccs2)cc1 | inconclusive: 6.87 µM [inhibitor, full curve, poor fit]
O=c1cc(-c2ccc(O)cc2)oc2cc(O[C@@H]3O[C@H](CO)[C@H](O)[C@H](O)[C@H]3O)cc(O)c12 | inactive
COc1cccc(NCc2ccc(O)c3ncccc23)n1 | inactive
COc1ccc(OC(=O)c2nc(SCc3ccccc3C)ncc2Cl)cc1 | inactive
COc1ccc(Nc2nc3ccccc3nc2NS(=O)(=O)c2ccc(Cl)cc2)cc1OC | inconclusive: 24.4 µM [inhibitor, partial curve]
CCN(Cc1cccc(S(=O)(=O)O)c1)c1ccc(C(=C2C=CC(=[N+](CC)Cc3cccc(S(=O)(=O)O)c3)C=C2)c2ccccc2S(=O)(=O)[O-])cc1 | active: 12.2 µM
Cn1c(=O)[nH]c2cc(-c3noc(-c4cccc(Cl)c4)n3)ccc21 | inactive
CCCc1nn2cc(-c3ccc(C)c(C)c3)nc2s1 | active: 0.77 µM
CCOc1ccc(OCC(=O)NCCS(=O)(=O)N2CCN(c3cccc(Cl)c3)CC2)cc1 | inactive
COc1ccc(/C=C/c2cc(O)cc(O[C@H]3OC(CO)C(O)C(O)C3O)c2)cc1 (some centres not stated) | inconclusive: 17.2 µM [inhibitor, partial curve, poor fit]
CC(C)Nc1ccc(-c2nc(-c3ccccn3)no2)cc1[N+](=O)[O-] | active: 3.44 µM
N#Cc1ccccc1Nc1ncc(-c2cccc3ccccc23)o1 | inconclusive: 1.37 µM [inhibitor, full curve, poor fit]
CCCc1cc(=O)[nH]c(Nc2cc(C)ccc2OC)n1 | inactive
Cc1ccc(-c2cc(C(=O)Nc3ncco3)c3ccccc3n2)cc1C | inconclusive: 12.2 µM [inhibitor, partial curve]
c1cc(-c2ccoc2)nc(-c2ccc3c(c2)OCO3)n1 | inconclusive: 13.7 µM [inhibitor, partial curve]
Cc1cc(Cl)ccc1NC(=O)c1cc2ccccn2n1 | active: 8.64 µM
O=C(O)c1ccc2nc(-c3cc4cc(Cl)ccc4oc3=O)[nH]c2c1 | inconclusive: 15.4 µM [inhibitor, partial curve]
CCOc1ccc(C(=O)Nc2cc(-c3ccccc3)no2)cc1 | inconclusive: 2.17 µM [inhibitor, full curve]
COc1cccc(C(=O)Nc2cccc(OCc3cc(=O)n4c5c(sc4n3)CCCC5)c2)c1 | inconclusive: 4.86 µM [inhibitor, partial curve, poor fit]

At a glance, some entries already given.
SMILES | Potency
Cc1cc(Cl)ccc1NC(=O)c1cc2ccccn2n1 | active: 8.64 µM
O=C(O)c1ccc2nc(-c3cc4cc(Cl)ccc4oc3=O)[nH]c2c1 | inconclusive: 15.4 µM [inhibitor, partial curve]
CCOc1ccc(C(=O)Nc2cc(-c3ccccc3)no2)cc1 | inconclusive: 2.17 µM [inhibitor, full curve]
COc1cccc(C(=O)Nc2cccc(OCc3cc(=O)n4c5c(sc4n3)CCCC5)c2)c1 | inconclusive: 4.86 µM [inhibitor, partial curve, poor fit]
